PubChem BioAssay AID1224831, NIAID – 2016

- Purpose: 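Retesting screen hits on the TLR4-driven TNF response with six separate siRNAs each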 (follow-up of hits)
- System: human THP-1 B5 monocytic leukaemia cells carrying a TNF promoter luciferase reporter, made macrophage-like with PMA
- Reagent: single siRNA against human genes, 50 nM
- Time to read-out: about 68 h of knock-down, then 4 h LPS
- Conditions: LPS (Salmonella minnesota, TLR-grade) at 10 ng/ml for 4 h; PMA 5 ng/ml present during knock-down
- Read-out: 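Firefly to renilla luciferase ratio of a TNF promoter reporter after 4 h LPS, scaled to plate median, turned into robust z-score, averaged over replicates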
- Scale: TNF reporter z-score: higher = stronger LPS-induced TNF reporter signal; z-score, median over gene's siRNAs: higher = stronger TNF reporter signal across the gene's siRNAs
- Rule for the call: 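Two-sided call: reduced or raised TNF reporter signal counts as active once mean z reaches about -1 or below, or about 1.5 or above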
- Calls: active = changed TNF reporter (either direction); inactive = little change
The deposit covers about 3,500 reagents; shown is a random part of them. Over the whole deposit, 731 (21%) were called active. 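Active means either lowered or raised reporter signal; the gene-median score did not drive the per-siRNA calls.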 Unmarked entries are inactive. Reagents against one gene are numbered here. No sequences are given here.

no.	Gene	siRNA no.	TNF reporter z-score, replicate mean	z-score, median over gene's siRNAs
1	BTRC	1	-0.55	-0.46
2	BTRC	2	0.26	-0.46
3	BTRC	3	-0.49	-0.46
4	BTRC	4	-0.43	-0.46
5	BTRC	5	0.47	-0.46
6	BTRC	6	-1.27 (active)	-0.46
7	HMGB1P1 (high mobility group box 1 pseudogene 1)	1	0.71	0.475
8	HMGB1P1 (high mobility group box 1 pseudogene 1)	2	0.52	0.475
9	HMGB1P1 (high mobility group box 1 pseudogene 1)	3	0.44	0.475
10	HMGB1P1 (high mobility group box 1 pseudogene 1)	4	-0.29	0.475
11	HMGB1P1 (high mobility group box 1 pseudogene 1)	5	-0.49	0.475
12	HMGB1P1 (high mobility group box 1 pseudogene 1)	6	0.51	0.475
13	RPGRIP1 (RPGR interacting protein 1)	1	1.53 (active)	0.47
14	RPGRIP1 (RPGR interacting protein 1)	2	0.01	0.47
15	RPGRIP1 (RPGR interacting protein 1)	3	0.35	0.47
16	RPGRIP1 (RPGR interacting protein 1)	4	2.71 (active)	0.47
17	RPGRIP1 (RPGR interacting protein 1)	5	0.59	0.47
18	RPGRIP1 (RPGR interacting protein 1)	6	-0.09	0.47
19	LIPE (lipase E, hormone sensitive type)	1	-1.19 (active)	-0.275
20	LIPE (lipase E, hormone sensitive type)	2	-0.28	-0.275
21	LIPE (lipase E, hormone sensitive type)	3	-0.27	-0.275
22	LIPE (lipase E, hormone sensitive type)	4	1.56 (active)	-0.275
23	LIPE (lipase E, hormone sensitive type)	5	-0.06	-0.275
24	LIPE (lipase E, hormone sensitive type)	6	-0.88	-0.275
25	PNPLA7 (patatin like domain 7, lysophospholipase)	1	-1.03 (active)	-0.61
26	PNPLA7 (patatin like domain 7, lysophospholipase)	2	-0.42	-0.61
27	PNPLA7 (patatin like domain 7, lysophospholipase)	3	1.66 (active)	-0.61
28	PNPLA7 (patatin like domain 7, lysophospholipase)	4	-0.8	-0.61
29	PNPLA7 (patatin like domain 7, lysophospholipase)	5	0.96	-0.61
30	PNPLA7 (patatin like domain 7, lysophospholipase)	6	-2.02 (active)	-0.61
31	COPS7A (COP9 signalosome subunit 7A)	1	-0.67	-0.205
32	COPS7A (COP9 signalosome subunit 7A)	2	-0.32	-0.205
33	COPS7A (COP9 signalosome subunit 7A)	3	-0.46	-0.205
34	COPS7A (COP9 signalosome subunit 7A)	4	-0.09	-0.205
35	COPS7A (COP9 signalosome subunit 7A)	5	5.2 (active)	-0.205
36	COPS7A (COP9 signalosome subunit 7A)	6	0.49	-0.205

As entered above.
For “TNF reporter z-score, replicate mean”, RPGRIP1 (RPGR interacting protein 1) #4 shows 2.71 (active)
LIPE (lipase E, hormone sensitive type) #4, TNF reporter z-score, replicate mean: 1.56 (active)
Entry of COPS7A (COP9 signalosome subunit 7A) #3 in “z-score, median over gene's siRNAs”: -0.205
For “z-score, median over gene's siRNAs”, PNPLA7 (patatin like domain 7, lysophospholipase) #4 reads -0.61
Value for LIPE (lipase E, hormone sensitive type) #5 in “TNF reporter z-score, replicate mean”: -0.06
BTRC #2, TNF reporter z-score, replicate mean = 0.26

The listing continues:
no.	Gene	siRNA no.	TNF reporter z-score, replicate mean	z-score, median over gene's siRNAs
37	EAF1 (ELL associated factor 1)	1	-1.25 (active)	-0.53
38	EAF1 (ELL associated factor 1)	2	-0.85	-0.53
39	EAF1 (ELL associated factor 1)	3	-0.25	-0.53
40	EAF1 (ELL associated factor 1)	4	0.06	-0.53
41	EAF1 (ELL associated factor 1)	5	-0.64	-0.53
42	EAF1 (ELL associated factor 1)	6	-0.42	-0.53
43	OR10Q1 (olfactory receptor family 10 subfamily Q member 1)	1	-0.83	-0.505
44	OR10Q1 (olfactory receptor family 10 subfamily Q member 1)	2	0.92	-0.505
45	OR10Q1 (olfactory receptor family 10 subfamily Q member 1)	3	-0.18	-0.505
46	OR10Q1 (olfactory receptor family 10 subfamily Q member 1)	4	-1.23 (active)	-0.505
47	OR10Q1 (olfactory receptor family 10 subfamily Q member 1)	5	-0.08	-0.505
48	OR10Q1 (olfactory receptor family 10 subfamily Q member 1)	6	-0.92	-0.505
49	C9orf72 (C9orf72-SMCR8 complex subunit)	1	-0.58	-0.625
50	C9orf72 (C9orf72-SMCR8 complex subunit)	2	-0.67	-0.625
51	C9orf72 (C9orf72-SMCR8 complex subunit)	3	-1.23 (active)	-0.625
52	C9orf72 (C9orf72-SMCR8 complex subunit)	4	-0.27	-0.625
53	C9orf72 (C9orf72-SMCR8 complex subunit)	5	-0.19	-0.625
54	C9orf72 (C9orf72-SMCR8 complex subunit)	6	-0.96	-0.625
55	CCNQ (cyclin Q)	1	-0.15	-0.055
56	CCNQ (cyclin Q)	2	0.51	-0.055
57	CCNQ (cyclin Q)	3	0.04	-0.055
58	CCNQ (cyclin Q)	4	-0.59	-0.055
59	CCNQ (cyclin Q)	5	-0.96	-0.055
60	CCNQ (cyclin Q)	6	1.06	-0.055
61	MAP3K15 (mitogen-activated protein kinase kinase kinase 15)	1	0.18	0.15
62	MAP3K15 (mitogen-activated protein kinase kinase kinase 15)	2	0.1	0.15
63	MAP3K15 (mitogen-activated protein kinase kinase kinase 15)	3	0.71	0.15
64	MAP3K15 (mitogen-activated protein kinase kinase kinase 15)	4	0.12	0.15
65	MAP3K15 (mitogen-activated protein kinase kinase kinase 15)	5	1.07	0.15
66	MAP3K15 (mitogen-activated protein kinase kinase kinase 15)	6	-0.4	0.15
67	KDM7A (lysine demethylase 7A)	1	0.69	0.26
68	KDM7A (lysine demethylase 7A)	2	0.73	0.26
69	KDM7A (lysine demethylase 7A)	3	0.91	0.26
70	KDM7A (lysine demethylase 7A)	4	-0.17	0.26
71	KDM7A (lysine demethylase 7A)	5	-0.9	0.26
72	KDM7A (lysine demethylase 7A)	6	-0.39	0.26
73	ENPP6 (ectonucleotide pyrophosphatase/phosphodiesterase 6)	1	0.58	-0.135
74	ENPP6 (ectonucleotide pyrophosphatase/phosphodiesterase 6)	2	-1.49 (active)	-0.135
75	ENPP6 (ectonucleotide pyrophosphatase/phosphodiesterase 6)	3	-0.2	-0.135
76	ENPP6 (ectonucleotide pyrophosphatase/phosphodiesterase 6)	4	-0.07	-0.135
77	ENPP6 (ectonucleotide pyrophosphatase/phosphodiesterase 6)	5	3.83 (active)	-0.135
78	ENPP6 (ectonucleotide pyrophosphatase/phosphodiesterase 6)	6	-0.57	-0.135
79	MAGEL2 (MAGE family member L2)	1	1.42	-0.52
80	MAGEL2 (MAGE family member L2)	2	-2.21 (active)	-0.52
81	MAGEL2 (MAGE family member L2)	3	-0.51	-0.52
82	MAGEL2 (MAGE family member L2)	4	-0.53	-0.52
83	MAGEL2 (MAGE family member L2)	5	-0.54	-0.52
84	MAGEL2 (MAGE family member L2)	6	0.51	-0.52
85	SNW1 (SNW domain containing 1)	1	-0.83	-0.81
86	SNW1 (SNW domain containing 1)	2	-0.79	-0.81
87	SNW1 (SNW domain containing 1)	3	-1.01 (active)	-0.81
88	SNW1 (SNW domain containing 1)	4	0.39	-0.81
89	SNW1 (SNW domain containing 1)	5	-1.43 (active)	-0.81
90	SNW1 (SNW domain containing 1)	6	-0.67	-0.81
91	MED10 (mediator complex subunit 10)	1	-0.28	-0.485
92	MED10 (mediator complex subunit 10)	2	-0.69	-0.485
93	MED10 (mediator complex subunit 10)	3	0.95	-0.485
94	MED10 (mediator complex subunit 10)	4	-0.69	-0.485
95	MED10 (mediator complex subunit 10)	5	-1.2 (active)	-0.485
96	MED10 (mediator complex subunit 10)	6	1.58 (active)	-0.485
97	PLAGL2 (PLAG1 like zinc finger 2)	1	0.84	0.395
98	PLAGL2 (PLAG1 like zinc finger 2)	2	-1.19 (active)	0.395
99	PLAGL2 (PLAG1 like zinc finger 2)	3	-0.98	0.395
100	PLAGL2 (PLAG1 like zinc finger 2)	4	-0.05	0.395
101	PLAGL2 (PLAG1 like zinc finger 2)	5	1.25	0.395
102	PLAGL2 (PLAG1 like zinc finger 2)	6	1.34	0.395
103	KAT7 (lysine acetyltransferase 7)	1	1.71 (active)	0.995
104	KAT7 (lysine acetyltransferase 7)	2	1	0.995
105	KAT7 (lysine acetyltransferase 7)	3	0.16	0.995
106	KAT7 (lysine acetyltransferase 7)	4	0.52	0.995
107	KAT7 (lysine acetyltransferase 7)	5	0.99	0.995
108	KAT7 (lysine acetyltransferase 7)	6	1.46	0.995
